For 2 molecules, binding results are on record in patent US20180273595A1.

Amino acid sequences for entries named in this document (tags omitted).
UniProt P11308: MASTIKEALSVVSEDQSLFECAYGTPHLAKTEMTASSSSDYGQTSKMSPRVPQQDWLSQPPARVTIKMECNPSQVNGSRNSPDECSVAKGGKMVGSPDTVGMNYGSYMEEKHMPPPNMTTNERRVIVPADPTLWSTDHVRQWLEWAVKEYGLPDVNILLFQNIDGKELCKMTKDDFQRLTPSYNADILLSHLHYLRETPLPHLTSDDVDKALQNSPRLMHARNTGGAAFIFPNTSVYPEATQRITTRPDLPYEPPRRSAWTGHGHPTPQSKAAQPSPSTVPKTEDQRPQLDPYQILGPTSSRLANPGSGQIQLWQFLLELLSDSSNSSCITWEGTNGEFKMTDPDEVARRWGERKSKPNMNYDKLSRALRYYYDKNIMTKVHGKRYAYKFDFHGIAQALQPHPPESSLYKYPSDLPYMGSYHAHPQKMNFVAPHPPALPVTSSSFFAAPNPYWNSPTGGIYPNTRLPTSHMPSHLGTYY

These are yes or no findings as the source states them, for the method shown. Some binding calls cover weakened binding; strength is not graded here.

Assay [1] addresses recombinant His-tagged full-length ERG (UniProt P11308). The experiment in a line: OctetRED BLI.
For assay [2] the target is unchanged. The experiment in a line: OctetRed, FIG. 14.

With LSFGSLP [EIP2 synthetic peptide LSFGSLP], in assay [1], the binding entry was “binds”.
In the case of PYLFT (free N-terminus, amide at the C-terminus) [5PT-N (NH2-PYLFT-NH2)], the binding result in assay [2] is “binds”.
